Source: PubChem BioAssay AID1347423 (Functional Genomics Laboratory (NCATS/FGL), 2020)
Screen size: about 52,000 sequences; about 210 (0.4%) were called active.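 Rule for the calls: active = gene whose silencing raises cell survival under the drug, median off-target-corrected z-score across its silencing RNAs 2 or more; inactive = the rest.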 This is one part of the list.

Assay: Resistance to Poly (ADP-Ribose) Polymerase inhibitor: Gene Identification via Genome-wide siRNA Screen
Conditions: mouse BRCA2 R2336H ES cells, olaparib, CellTiter-Glo viability; hits give high values
Summary of the method: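 Genome-wide siRNA screen (3 siRNAs/gene, 20 nM) in mouse ES cells carrying hypomorphic BRCA2 R2336H; olaparib 500 nM added 48 h post-transfection, CellTiter-Glo viability 72 h later. Normalized to plate-median negative control; MAD z-scores, gene median, seed-adjusted.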

Sequence	z-score
GCUAUUUUCAUACAUUCCCTT against Bzrap1	inactive: 0.447
GCCUACAACUACUGAAACCTT against Ifnt1	inactive: -0.596
GGAUUGUUAGCAAAGAAAGTT against Aco1	inactive: -0.228
GGAAUCGUUUUUGCUUAGATT against 1200013F24Rik	inactive: -1.2
GCAACAUUCCUACAAUUAATT against Gsta4	inactive: 0.155
GGAGACUCCUUACGGCAAATT against Bnip1	inactive: 0.535
GGCUUUCUUUGACUGUCUCTT against Rdh6	inactive: -0.481
GGAAAUGACCUUGGUGUGUTT against Olfr644	inactive: -2.66
GGUGGCCUUUCCUCGAAGATT against Msi1h	inactive: -0.655
GGUGGUUAUUUAUUGGUGATT against Sp6	inactive: -0.0325
CGAAAUGAAAACUUCCUGGTT against Mab21l1	inactive: 0.64
GGACCUGUGUGCUGAGUUGTT against Matn4	inactive: 0.692
GGAGCUUCAUCUUUCAAGATT against Uqcrc2	inactive: 0.483
CUCCGACCAUACUGGAAGATT against 0710001E13Rik	inactive: 0.691
ACUAUCUGUACAACGUGCUTT against Kcnq5	inactive: 1.37
CGUAUUGUUUCCUAGCACATT against 9130221D24Rik	inactive: 2.43
GCCCUAGUCUUCUACAGCUTT against Gpr18	inactive: 1.38
GCAUUAGAAGAACUACUGATT against Gdpd2	inactive: 0.606
GCCACGUAUAACCACGACATT against Spag4l	inactive: -0.884
GGACUCUUUCGCUGCAUGATT against Sucla2	inactive: 0.376
GGUAUAAUCAAAGGAUAUCTT against C430003P19Rik	inactive: -0.752
GGUGGAUAUAAUAAUUGACTT against Tgfbr3	inactive: 0.733
CCUAUGGUAGAAAAAUACUTT against Fundc1	inactive: 0.518
GGUCUGCUAUGAAAUUAUGTT against Tmem14c	inactive: 1.43
CCUAGUAGCUCAGACACCGTT against Evx1	inactive: -0.339
CCCUCAUUGUGGUUACCAUTT against Olfr1428	inactive: 1.63
GGACUAAGCAAUCUCUUUUTT against Gspt2	inactive: -0.537

Sequence	z-score
GGAGGAACUCGAAUCUCAGTT against Adamts19	inactive: 2.03
GCCCAACGUGGUGUACAUUTT against 1110032E23Rik	inactive: -0.325
CCUUAAAACUUCAGGGCUCTT against 1700055D18Rik	inactive: -0.703
CCACCAGUUAUCCGAAUCATT against 4932414N04Rik	inactive: 2.62
GCUUGUCCACAUUGCCUUCTT against Olfr33	inactive: -0.743
GCACUUGAACCGUGAGUGUTT against 2610034H20Rik	inactive: 1.48
GGCAUAUGCAUGUUAUAUCTT against E330009P21Rik	inactive: 0.0984
GGACCAAGACCGAUGUGUATT against Ccrl1	inactive: 0.529
GGUGCUGGAGAAAACCUUGTT against 2610020H15Rik	inactive: -0.121
GGUGGAUGAAGAGUAUAAGTT against Phka2	inactive: 1.09
GGAGACCAUGAAUUUAAUGTT against 1300018I05Rik	inactive: 0.284
CGCCCUUGGAGGUUAAUCATT against Nsg2	inactive: -2.06
CGAGAUAAACCAUACCUGGTT against Zfp61	inactive: -0.27
GGCAACAGACAAACAGCCGTT against Ugcg	inactive: 0.181
GGCAAUGGAGUUUCAAUUUTT against Stard5	inactive: 0.195
GGCUUUUGAAAAGUUCACATT against Rnf32	inactive: -0.0695
CCUCAACUGGUUCCCUAACTT against Spatc1	inactive: -0.181
GGGUUUGAGGAAGUUAAGATT against Slc5a3	inactive: 0.232
GGCUGUAUAAAUCAGAUUATT against 1600012H06Rik	inactive: 0.0132
GGCGGUCAAAUACAAAAGGTT against Pde1a	inactive: 0.7
GGGUUUCUUCCUUGUCAGATT against Abcc3	inactive: 1.32
GGAGGAGGCAGAAACAACATT against 4930549C01Rik	inactive: -0.4
GCAAGACCAGUGGAGUGGUTT against Sncb	inactive: 1.61
GGUGUUGAAAUCGGUUUCCTT against Ube2v1	inactive: -0.0537
GGAGUUAAUUGCCCGCAACTT against Rab19	inactive: -1.23
GGCACUGAUGAUUAAGCUUTT against Gale	inactive: -0.0723
GGAUUCAAAGUGUGCACAATT against Lrrc3b	inactive: -0.12

Single entries from the list.
Entry for GGAUUGUUAGCAAAGAAAGTT against Aco1 under z-score: inactive: -0.228
Entry for GGAGGAACUCGAAUCUCAGTT against Adamts19 under z-score: inactive: 2.03

Next part

Sequence	z-score
GGACUAAGUGGACGGUUUATT against Txndc1	inactive: 0.449
GGCUGCCUAUCCCUAAACUTT against Cpt2	inactive: -0.427
CUGUGGACUUCCCUAAGAATT against NMS	inactive: -1.13
GGAGCUUGCCUGAUUUUGCTT against Rfx1	inactive: 0.641
GGUCUUUAACAACAUUGGATT against D10Ertd802e	inactive: 0.12
GCCAGUGAUGGAAUUGUAATT against Rrm2b	inactive: -2.48
CGGACUCGAAAGAAGGAAUTT against 2810036K01Rik	inactive: -0.205
GGAUGACAUUUCAGUGUGGTT against Matn4	inactive: 0.874
GGAAUUUAAACUGAAGGAUTT against Fkbp9	inactive: -0.292
GGACAACCAAAUUCUCAAGTT against Olfml3	inactive: 0.566
GCAUAUCAACGCAGUGUCATT against 1700091F14Rik	inactive: 1.63
GCCUCAAAAUGGCGGAACUTT against Casp8	inactive: 2.49
GAAGAAGGAAAAAAACCCATT against Sec61b	inactive: 0.769
GGUGUUUGGGAAAGGUCUGTT against Trpm1	inactive: 1.13
GGCCAGAUAGCAAAACAGCTT against Mpst	inactive: 1.1
GGAGAUUGAACAGUCAAACTT against Pex5	inactive: -0.782
GGCAGAAGCAGAUAUUAGATT against Rbmxrt	inactive: -0.275
GGUGGAGCUGGACAAGAAGTT against Nef3	inactive: -2.44
GCUCAAAGCUUAUGAUUUCTT against Commd2	inactive: -0.35
GGCUGAGGCUGUGAAGAAGTT against Igfbp5	inactive: -0.203
GCUCUUAGGGAAGAAUAUUTT against Arnt	inactive: 0.556
GGACAAUUCCAGUCAAUAATT against 2310061I09Rik	inactive: -1.92
GAAUGAACUGCUGAAAAAGTT against Klra16	inactive: -0.479
GGCGGUGAUAUUCUAGAAGTT against E130119P06Rik	inactive: -0.519
GCUUAUAGGCCUAUAUGCCTT against Inppl1	inactive: 0.179
GGUGUAUGGAUUUUAUGAUTT against Ppp6c	inactive: -1.68
GGUUUGCUGAAUGUCAUUUTT against Magea2	inactive: 0.85

2 entries picked at random from the list so far, as already listed:
Sequence	z-score
GGUGUAUGGAUUUUAUGAUTT against Ppp6c	inactive: -1.68
GGUGUUUGGGAAAGGUCUGTT against Trpm1	inactive: 1.13

Exported as a markdown table: entries from further up

| Sequence | z-score |
| --- | --- |
| GGACUAAGUGGACGGUUUATT against Txndc1 | inactive: 0.449 |
| GGCUGCCUAUCCCUAAACUTT against Cpt2 | inactive: -0.427 |

Going on with the list:

Sequence	z-score
GGUGAGACAGAUAAAGUUCTT against Olfr1125	inactive: 0.558
CCCACUGUACAUUUGUAAATT against Mpn	inactive: -0.339
GGAUGAAACAAGUGAAGAUTT against Papola	inactive: 1.66
CGGUAUCUCAACUUUUACATT against Stra8	inactive: 0.301
GGAUGGGACUUUUGAAAAATT against Cd3z	inactive: -0.45
GGACAUACCGAGAAGAUUGTT against 3110001D03Rik	inactive: 1.59
GGAAGAGGUCUUGAUCCACTT against Kelchl	inactive: -0.841
GCUGCUAUGACCUAUGGCATT against Sptlc2	inactive: 0.991
CCCAAUGUCCCAACUCACATT against Baalc	inactive: -1.48
GGCAAUGAGUCUGACCUCUTT against Capg	inactive: 0.928
GCCAGAAUUUUAGCUAGUATT against Tnfaip9	inactive: 0.328
GGCAGAAUUUGAGCACUUUTT against Galgt2	inactive: 1.75
GGACCUGGACCUUUUAGAGTT against Vegfb	inactive: 0.201
GCUGUUGAUGUAGUUUGGUTT against Dctd	inactive: -0.213
GGUCAGAAGGUGUGUUAUATT against Rad52	inactive: 2.76
GGCAUUUGAAGAUGUUUCUTT against Hmgb3	active: 1.56
GGUAGAAUUACUGUGUACUTT against Slc26a4	inactive: -0.482
GGACAAGUCGAGUUUCAAGTT against Zfp503	inactive: 1.1
CCAAUGAAACAUUUACUUCTT against Stmn4	inactive: 0.62
GGAAACCAGAAAAACUGAATT against Parg	inactive: 0.204
GGCUGAGGAGUGGUACUUUTT against Src	inactive: -1.18
GGUUAAGUUCCUCUGGAACTT against Pnliprp2	inactive: -1.59
GGUACUUCAUCGAUUCAGCTT against 3110024A21Rik	inactive: 0.263
GCAUUGAGCUCGACUUCUGTT against Cpa3	inactive: -0.0264
